B1: hTUT4_N C306A/C309A (domain or fragment, UniProt Q5TAX3)
chain: SEMDYLENATVIDESALTPEQRLGLKQAEERLERDHIFRLEKRSPEYTNCRYLAKLALIHIENIQGAHKHIKEKRHKKNILEKQEESELRSLPPPSPAHLAALSVAVIELAKEHGITDDDLRVRQEIVEEMSKVITTFLPECSLRLYGSSLTRFALKSSDVNIDIKFPPKMNHPDLLIKVLGILKKNVLYVDVESDFHAKVPVVVCRDRKSGLLCRVSAGNDMACLTTDLLTALGKIEPVFIPLVLAFRYWAKLCYIDSQTDGGIPSYCFALMVMFFLQQRKPPLLPCLLGSWIEGFDPKRMDDFQLKGIVEEKFVKWECNSSSATKEKHGKSPLALETPNRVSLGQLWLELLKFYTLDFALEEYVICVRIQDILTRENKNWPKRRIAIEDPFSVKRNVARSLNSQLVYEYVVERFRAAYRYFACPQTKGGNKSTVDFK
B2: hTUT4_N K321A/K324A (domain or fragment, UniProt Q5TAX3)
chain: SEMDYLENATVIDESALTPEQRLGLKQAEERLERDHIFRLEKRSPEYTNCRYLCKLCLIHIENIQGAHAHIAEKRHKKNILEKQEESELRSLPPPSPAHLAALSVAVIELAKEHGITDDDLRVRQEIVEEMSKVITTFLPECSLRLYGSSLTRFALKSSDVNIDIKFPPKMNHPDLLIKVLGILKKNVLYVDVESDFHAKVPVVVCRDRKSGLLCRVSAGNDMACLTTDLLTALGKIEPVFIPLVLAFRYWAKLCYIDSQTDGGIPSYCFALMVMFFLQQRKPPLLPCLLGSWIEGFDPKRMDDFQLKGIVEEKFVKWECNSSSATKEKHGKSPLALETPNRVSLGQLWLELLKFYTLDFALEEYVICVRIQDILTRENKNWPKRRIAIEDPFSVKRNVARSLNSQLVYEYVVERFRAAYRYFACPQTKGGNKSTVDFK
B3: hTUT4_N K326A/R327A (domain or fragment, UniProt Q5TAX3)
chain: SEMDYLENATVIDESALTPEQRLGLKQAEERLERDHIFRLEKRSPEYTNCRYLCKLCLIHIENIQGAHKHIKEAAHKKNILEKQEESELRSLPPPSPAHLAALSVAVIELAKEHGITDDDLRVRQEIVEEMSKVITTFLPECSLRLYGSSLTRFALKSSDVNIDIKFPPKMNHPDLLIKVLGILKKNVLYVDVESDFHAKVPVVVCRDRKSGLLCRVSAGNDMACLTTDLLTALGKIEPVFIPLVLAFRYWAKLCYIDSQTDGGIPSYCFALMVMFFLQQRKPPLLPCLLGSWIEGFDPKRMDDFQLKGIVEEKFVKWECNSSSATKEKHGKSPLALETPNRVSLGQLWLELLKFYTLDFALEEYVICVRIQDILTRENKNWPKRRIAIEDPFSVKRNVARSLNSQLVYEYVVERFRAAYRYFACPQTKGGNKSTVDFK
B4: hTUT4_N K329A/K330A (domain or fragment, UniProt Q5TAX3)
chain: SEMDYLENATVIDESALTPEQRLGLKQAEERLERDHIFRLEKRSPEYTNCRYLCKLCLIHIENIQGAHKHIKEKRHAANILEKQEESELRSLPPPSPAHLAALSVAVIELAKEHGITDDDLRVRQEIVEEMSKVITTFLPECSLRLYGSSLTRFALKSSDVNIDIKFPPKMNHPDLLIKVLGILKKNVLYVDVESDFHAKVPVVVCRDRKSGLLCRVSAGNDMACLTTDLLTALGKIEPVFIPLVLAFRYWAKLCYIDSQTDGGIPSYCFALMVMFFLQQRKPPLLPCLLGSWIEGFDPKRMDDFQLKGIVEEKFVKWECNSSSATKEKHGKSPLALETPNRVSLGQLWLELLKFYTLDFALEEYVICVRIQDILTRENKNWPKRRIAIEDPFSVKRNVARSLNSQLVYEYVVERFRAAYRYFACPQTKGGNKSTVDFK

Results are given in words; binding and its absence hold for the method and conditions named.

In this experiment the target is T1, recombinant human Lin28A (residues 1-209) (human) (UniProt Q9H9Z2).
T1 sequence: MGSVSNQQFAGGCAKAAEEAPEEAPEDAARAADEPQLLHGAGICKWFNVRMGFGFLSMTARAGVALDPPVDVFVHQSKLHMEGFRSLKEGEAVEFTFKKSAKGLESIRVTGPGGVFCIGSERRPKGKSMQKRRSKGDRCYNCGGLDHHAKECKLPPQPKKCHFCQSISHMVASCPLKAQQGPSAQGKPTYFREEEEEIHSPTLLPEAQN
In words: condition: 300 nM hTUT4 protein, 300 nM hLin28A, 100 nM pre-let-7a-1; native gel or EMSA; 300 nM recombinant hTUT4 protein with 100 nM pre-let-7a-1, with or without 300 nM recombinant hLin28A; 50 mM Tris-HCl pH 8.5, 100 mM NaCl, 10 mM MgCl2, 10 mM β-mercaptoethanol, 10% glycerol, 10 min at room temperature; native polyacrylamide gel stained with ethidium bromide; both purified.
As to B1, the binding result is on record as “no binding”.

For B2, the binding result is listed as “no binding”.

Regarding B3, the binding result is “no binding”.

Regarding B4, the binding entry is reported as “no binding”.

The record behind these values is PMC6488673, “Crystal structure of the Lin28-interacting module of human terminal uridylyltransferase that regulates let-7 expression”.
